The text below walks through data of PMC6994238.

The chains behind the UniProt entries cited, without tags or fusion partners.
UniProt B1B601: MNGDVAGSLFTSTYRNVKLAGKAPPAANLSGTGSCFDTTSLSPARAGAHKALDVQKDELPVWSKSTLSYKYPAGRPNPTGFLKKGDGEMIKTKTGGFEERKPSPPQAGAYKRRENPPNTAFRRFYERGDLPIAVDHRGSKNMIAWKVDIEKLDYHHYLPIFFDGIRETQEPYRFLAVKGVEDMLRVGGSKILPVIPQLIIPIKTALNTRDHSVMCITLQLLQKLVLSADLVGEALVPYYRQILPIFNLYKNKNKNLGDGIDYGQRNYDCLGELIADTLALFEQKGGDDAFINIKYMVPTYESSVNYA
UniProt P04690: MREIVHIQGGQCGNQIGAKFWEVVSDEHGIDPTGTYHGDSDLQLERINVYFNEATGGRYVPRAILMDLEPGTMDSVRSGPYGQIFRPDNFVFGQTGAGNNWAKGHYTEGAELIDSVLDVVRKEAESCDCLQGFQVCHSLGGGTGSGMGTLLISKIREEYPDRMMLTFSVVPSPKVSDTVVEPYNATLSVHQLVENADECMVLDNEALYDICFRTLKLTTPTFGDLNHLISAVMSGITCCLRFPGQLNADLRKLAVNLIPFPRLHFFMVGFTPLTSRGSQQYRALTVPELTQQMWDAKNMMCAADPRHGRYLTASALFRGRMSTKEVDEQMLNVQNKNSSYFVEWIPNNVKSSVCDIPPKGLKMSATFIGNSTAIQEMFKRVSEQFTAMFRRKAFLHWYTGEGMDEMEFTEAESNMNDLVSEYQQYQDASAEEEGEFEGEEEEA

No constants are given. Whether binding was seen depends on the method and setting. Some binding calls cover weakened binding; strength is not graded here.

The target in test [1] is PArkin Co-Regulated Gene (PACRG), Chlamydomonas reinhardtii (Chlamydomonas reinhardtii) (UniProt B1B601). Kind of test: cryo-EM structure; taxol-stabilised, 0.6 M NaCl-washed doublet microtubules isolated from Chlamydomonas flagella; 16 nm repeat map, focused refinement of the inner junction to 3.6 Å; atomic model PDB 6VE7.
The target in test [2] is β-tubulin, Chlamydomonas reinhardtii (Chlamydomonas reinhardtii) (UniProt P04690). Described as above.

B1: FAP20, Chlamydomonas reinhardtii (protein, UniProt A8IU92 1-190)
chain: MFKNAFQSGFLSVLYSIGSKPLEIWDKQVSNGHIKRITDADIQSSVLEIMGQNVSTTYITCPADPNKTLGIKLPFLVLIIKNLNKYFSFEVQVLDDKNVRRRFRASNYQSTTRVKPFICTMPMRLDSGWNQIQFNLSDFTRRAYGTNYIETLRVQVHANCRIRRIYFSDRLYSEEELPAEFKLFLPIQKS
Take B1: the binding result in test [1] and in test [2] was “binds” throughout.
